Experimental data published in article PMC1762421.
These are yes or no findings as the source states them, for the method shown. Some results given as binding are weak or reduced against the parent protein; the word gives no strength.

By UniProt entry, the sequences of proteins in these tests, tags left out. Where a name states a change or a piece, a line headed by the entry shows the natural chain unless it says otherwise. Chains listed by the source or under a name are the forms on record and can include a tag or linker.
UniProt P41233: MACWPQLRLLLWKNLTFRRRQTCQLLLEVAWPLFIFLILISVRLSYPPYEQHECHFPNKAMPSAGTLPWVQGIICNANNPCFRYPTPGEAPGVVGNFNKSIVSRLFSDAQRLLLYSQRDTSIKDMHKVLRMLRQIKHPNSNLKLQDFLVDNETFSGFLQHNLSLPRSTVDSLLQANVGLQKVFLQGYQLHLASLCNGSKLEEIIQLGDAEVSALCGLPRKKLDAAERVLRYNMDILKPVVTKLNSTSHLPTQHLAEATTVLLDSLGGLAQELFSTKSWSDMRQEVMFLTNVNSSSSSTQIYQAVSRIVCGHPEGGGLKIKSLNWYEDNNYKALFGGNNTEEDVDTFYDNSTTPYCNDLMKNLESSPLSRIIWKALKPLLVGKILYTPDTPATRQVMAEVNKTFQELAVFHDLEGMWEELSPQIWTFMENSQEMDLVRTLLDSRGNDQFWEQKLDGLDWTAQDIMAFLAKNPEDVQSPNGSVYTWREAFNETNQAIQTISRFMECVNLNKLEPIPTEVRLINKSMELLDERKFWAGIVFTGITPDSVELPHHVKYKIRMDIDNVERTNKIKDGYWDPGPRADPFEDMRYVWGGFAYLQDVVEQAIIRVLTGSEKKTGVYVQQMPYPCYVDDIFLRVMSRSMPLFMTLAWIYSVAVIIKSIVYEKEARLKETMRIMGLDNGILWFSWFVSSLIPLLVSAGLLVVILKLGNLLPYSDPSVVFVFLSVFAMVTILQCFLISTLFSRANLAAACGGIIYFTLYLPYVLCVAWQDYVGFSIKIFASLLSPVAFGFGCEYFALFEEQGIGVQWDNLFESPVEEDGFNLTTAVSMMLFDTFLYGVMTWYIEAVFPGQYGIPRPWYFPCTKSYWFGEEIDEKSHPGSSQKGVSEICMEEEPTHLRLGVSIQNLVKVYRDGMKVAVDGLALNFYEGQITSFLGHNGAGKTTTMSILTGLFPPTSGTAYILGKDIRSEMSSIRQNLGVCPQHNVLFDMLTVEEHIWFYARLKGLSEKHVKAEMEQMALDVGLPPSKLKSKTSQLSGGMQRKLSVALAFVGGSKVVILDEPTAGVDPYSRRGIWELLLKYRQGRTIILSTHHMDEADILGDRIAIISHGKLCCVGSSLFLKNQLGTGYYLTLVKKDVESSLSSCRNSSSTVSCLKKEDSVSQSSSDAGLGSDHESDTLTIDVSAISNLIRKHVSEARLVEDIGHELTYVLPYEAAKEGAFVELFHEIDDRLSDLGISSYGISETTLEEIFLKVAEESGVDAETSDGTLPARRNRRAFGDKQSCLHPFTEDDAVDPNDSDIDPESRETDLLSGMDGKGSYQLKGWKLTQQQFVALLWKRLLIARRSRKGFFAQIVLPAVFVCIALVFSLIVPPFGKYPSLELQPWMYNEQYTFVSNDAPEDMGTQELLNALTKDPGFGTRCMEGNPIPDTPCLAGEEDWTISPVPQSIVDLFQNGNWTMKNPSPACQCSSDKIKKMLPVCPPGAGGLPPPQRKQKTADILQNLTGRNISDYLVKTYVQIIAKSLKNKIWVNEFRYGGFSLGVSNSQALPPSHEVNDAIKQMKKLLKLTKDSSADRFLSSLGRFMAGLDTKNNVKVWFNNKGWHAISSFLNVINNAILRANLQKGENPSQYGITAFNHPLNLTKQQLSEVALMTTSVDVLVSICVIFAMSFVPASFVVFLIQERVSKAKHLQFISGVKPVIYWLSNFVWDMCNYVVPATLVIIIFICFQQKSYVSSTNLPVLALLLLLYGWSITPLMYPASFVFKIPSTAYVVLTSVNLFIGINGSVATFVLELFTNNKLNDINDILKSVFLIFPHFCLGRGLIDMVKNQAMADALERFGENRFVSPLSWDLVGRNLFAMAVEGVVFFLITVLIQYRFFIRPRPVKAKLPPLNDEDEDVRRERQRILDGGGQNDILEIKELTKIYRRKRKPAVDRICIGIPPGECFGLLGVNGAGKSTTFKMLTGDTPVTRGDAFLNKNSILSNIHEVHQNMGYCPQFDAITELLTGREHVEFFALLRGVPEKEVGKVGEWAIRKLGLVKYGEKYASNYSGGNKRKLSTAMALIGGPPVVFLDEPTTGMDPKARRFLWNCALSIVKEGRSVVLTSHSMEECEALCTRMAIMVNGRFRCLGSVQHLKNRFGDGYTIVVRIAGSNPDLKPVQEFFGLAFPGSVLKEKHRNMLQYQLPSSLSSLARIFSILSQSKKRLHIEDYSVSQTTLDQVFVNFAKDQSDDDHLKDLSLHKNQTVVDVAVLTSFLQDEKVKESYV
ABCA1MM EYFP (P41233, form named): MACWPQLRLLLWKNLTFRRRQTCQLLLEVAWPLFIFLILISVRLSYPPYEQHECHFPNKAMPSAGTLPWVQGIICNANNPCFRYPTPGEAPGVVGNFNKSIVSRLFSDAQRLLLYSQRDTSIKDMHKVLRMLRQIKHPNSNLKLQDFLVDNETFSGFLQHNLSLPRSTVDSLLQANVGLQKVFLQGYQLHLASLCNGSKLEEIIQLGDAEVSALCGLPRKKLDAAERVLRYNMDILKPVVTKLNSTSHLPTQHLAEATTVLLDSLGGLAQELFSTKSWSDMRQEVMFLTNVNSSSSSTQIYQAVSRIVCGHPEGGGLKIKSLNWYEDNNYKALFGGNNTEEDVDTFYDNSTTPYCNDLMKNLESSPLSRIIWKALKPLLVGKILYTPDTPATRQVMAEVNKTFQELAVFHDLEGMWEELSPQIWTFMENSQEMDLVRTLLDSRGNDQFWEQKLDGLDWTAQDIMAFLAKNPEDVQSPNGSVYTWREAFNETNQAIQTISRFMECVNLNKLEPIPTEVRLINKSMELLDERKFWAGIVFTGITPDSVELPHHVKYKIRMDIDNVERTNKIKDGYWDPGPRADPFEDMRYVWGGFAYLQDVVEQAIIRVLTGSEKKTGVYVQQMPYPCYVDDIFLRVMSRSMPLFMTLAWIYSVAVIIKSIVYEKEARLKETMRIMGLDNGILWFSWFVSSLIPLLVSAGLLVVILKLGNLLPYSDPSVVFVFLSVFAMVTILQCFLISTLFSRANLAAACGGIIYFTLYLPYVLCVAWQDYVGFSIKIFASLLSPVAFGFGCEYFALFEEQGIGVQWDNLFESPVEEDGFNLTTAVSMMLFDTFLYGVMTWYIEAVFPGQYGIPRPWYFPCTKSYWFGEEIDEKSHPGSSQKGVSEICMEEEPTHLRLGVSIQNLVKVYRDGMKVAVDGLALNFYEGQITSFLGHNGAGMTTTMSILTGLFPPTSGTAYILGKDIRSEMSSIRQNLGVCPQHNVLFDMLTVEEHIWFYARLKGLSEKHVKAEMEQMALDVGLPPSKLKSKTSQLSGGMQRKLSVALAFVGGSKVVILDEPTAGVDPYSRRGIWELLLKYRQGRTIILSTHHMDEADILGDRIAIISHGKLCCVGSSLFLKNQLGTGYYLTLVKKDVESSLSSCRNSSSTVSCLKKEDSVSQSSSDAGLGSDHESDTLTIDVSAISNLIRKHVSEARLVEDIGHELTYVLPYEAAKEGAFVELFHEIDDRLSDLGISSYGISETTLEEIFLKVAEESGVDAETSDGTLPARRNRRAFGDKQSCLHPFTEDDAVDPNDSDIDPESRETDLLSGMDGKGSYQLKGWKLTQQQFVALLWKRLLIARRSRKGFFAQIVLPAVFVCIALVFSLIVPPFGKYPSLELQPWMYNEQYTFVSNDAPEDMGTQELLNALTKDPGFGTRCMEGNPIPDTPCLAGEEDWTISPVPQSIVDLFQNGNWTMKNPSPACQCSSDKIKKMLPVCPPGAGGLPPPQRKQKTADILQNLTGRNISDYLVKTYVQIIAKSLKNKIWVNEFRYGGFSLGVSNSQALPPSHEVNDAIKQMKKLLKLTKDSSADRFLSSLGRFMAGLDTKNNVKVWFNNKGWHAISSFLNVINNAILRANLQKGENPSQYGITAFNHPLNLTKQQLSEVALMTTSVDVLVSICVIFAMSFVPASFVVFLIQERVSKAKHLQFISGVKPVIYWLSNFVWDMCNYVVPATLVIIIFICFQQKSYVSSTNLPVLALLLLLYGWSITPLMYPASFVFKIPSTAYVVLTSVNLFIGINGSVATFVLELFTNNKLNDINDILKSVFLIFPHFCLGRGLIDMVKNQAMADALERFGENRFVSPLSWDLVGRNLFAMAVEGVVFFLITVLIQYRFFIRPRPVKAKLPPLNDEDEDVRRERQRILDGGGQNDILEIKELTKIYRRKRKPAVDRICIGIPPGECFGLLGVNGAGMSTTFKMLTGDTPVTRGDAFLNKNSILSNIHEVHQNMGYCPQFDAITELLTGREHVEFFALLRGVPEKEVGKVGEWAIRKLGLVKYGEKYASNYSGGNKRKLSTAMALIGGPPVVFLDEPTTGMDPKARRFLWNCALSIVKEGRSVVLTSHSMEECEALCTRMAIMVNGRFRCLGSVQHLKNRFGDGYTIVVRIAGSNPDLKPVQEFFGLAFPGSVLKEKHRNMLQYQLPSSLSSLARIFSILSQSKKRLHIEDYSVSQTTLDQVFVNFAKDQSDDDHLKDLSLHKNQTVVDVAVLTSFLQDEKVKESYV

Target: ABCA1MM EYFP (UniProt P41233)
Assay: native gel or EMSA; Deriphat native PAGE of lysates (1% α-DM, 150 mM NaCl, 50 mM TrisHCl pH 7.4) of HeLa cells co-transfected with MEGF10 and ABCA1 or ABCA1MM, 4°C; blots with anti-ABCA1 891.3 and anti-GFP

binding: binds
Substance: ABCA1MM EYFP (from UniProt P41233 1-2261)
